The supplement of paper PMC12067093, “Discovery and optimisation of a covalent ligand for TRIM25 and its application to targeted protein ubiquitination” (Chemical Science, 2025)
This is one part of the list.

Compound: CC1Cc2ccccc2N1C(=O)C1CCCN(C1)C(=O)CCl (mixture of isomers) [TRIM25 ligand 11 (diastereomer mixture)]
Test: probe-labelled cysteine peptide fold change vs DMSO (competition) (log2 fold change); higher = less target engagement (more negative = stronger competition)
Details: THP-1, incubation time: 4 h
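Further: competitive chemoproteomic profiling in live THP-1 cells with an iodoacetamide desthiobiotin (IA-DTB) probe, comparing probe-labelled peptide intensities in compound-treated cells against DMSO-treated controls.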

Target | probe-labelled cysteine peptide fold change (10 µM) | probe-labelled cysteine peptide fold change (50 µM)
GOPC_Q9HD26_81_MTSLSSCFAQLCHK (UniProt Q9HD26) | 0.211 | 0.208
GLA_P06280_378+382_GVACNPACFITQLLPVKR (UniProt P06280) | -0.0751 | 0.0595
GOT2_P00505_382_EGSTHNWQHITDQIGMFCFTGLKPEQVER (UniProt P00505) | -0.0654 | -0.227
GNAQ_P50148_9_TLESIMACCLSEEAK (UniProt P50148) | -0.0572 | 0.016
GNB2_P62879_148+149_ELPGHTGYLSCCR (UniProt P62879) | 0.103 | 0.141
GNAI2_P04899_112_QLFALSCTAEEQGVLPDDLSGVIR (UniProt P04899) | -0.142 | -0.0648
GNPDA1_P46926_48_YFTLGLPTGSTPLGCYK (UniProt P46926) | -0.0393 | -0.0075
GNL3L_Q9NVN8_490_IGDLTGYCTNPNR (UniProt Q9NVN8) | -0.0839 | -0.179
GOT2_P00505_212_IPEQSVLLLHACAHNPTGVDPRPEQWK (UniProt P00505) | 0.207 | 0.182
GNL3L_Q9NVN8_278_ACSVGAVPGITK (UniProt Q9NVN8) | 0.0241 | -0.0169
GLA_P06280_94_DAGYEYLCIDDCWMAPQR (UniProt P06280) | -0.489 | -0.044
GLB1_P16278_393_TVGAALDILCPSGPIK (UniProt P16278) | -0.0917 | -0.153
GLG1_Q92896_970_AKDDSELEGQVISCLK (UniProt Q92896) | -0.127 | -0.0527
GK_P32189_289+293_NTYGTGCFLLCNTGHK (UniProt P32189) | -0.0041 | 0.249
